# Results are given in words; binding and its absence hold for the method and conditions named. A result given as binding can be weak or reduced; the word gives no strength.
# B1: mAb FL134.33 (antibody, V domains shown)
# VH: AVQLQESGPDLVKPSQSLSLTCTVTGYSITSGYSWHWIRQFPGNKLEWVGYIHYRGNTNYNPSLKSRVSITRDTYKNQFFLQLNSLTTEDTATYYCAQEPVRNYAMDFWGQGTSVTVSS
# VL: DIVMTQSPDTLSVTPGDRVSLSCRASQSISDDLHWYQQKSHESPRLLIKYVSQSISGIPSRFSGSGSRSDFTLTINSVEPEDVGLYYCQNGHGFPPTFGGGTKLEIK
# Key:
# [1] = target: HSA-Fuc-GM1 conjugate (human); assay: ELISA on coated conjugate
# [2] = target: HSA-Fuc-GM1 conjugate (human); assay: ELISA on HSA-Fuc-GM1 conjugate; detected with anti-mouse IgG biotin and streptavidin HRP; A450 against 620 nm background
binder,measurement,setting,value
B1,binding,[1],binds
same,binding,[2],binds

# Source: patent US12552876
